Measurements reported in patent US9145391B2, “Bipyridylaminopyridines as Syk inhibitors” (Merck Sharp & Dohme Corp., priority 2011, dated 2015).
pIC50: −log10 of the molar value. The match of structure and compound is tentative.

Target: recombinant human GST-Syk (Homo sapiens (Human), UniProt P43405)
Assay: Homogeneous Time-Resolved Fluorescence (HTRF) assay for the recombinant human Syk enzyme
Assay type: biochemical
Settings: read-out: rhSyk IC50, recombinant human GST-Syk 5 pM, ATP 25 μM

Question: How did the pIC50 turn out when `Cc1ccnc(Nc2cc(C)cc(-c3ccc(NC(C)(C)C(=O)O)nc3)n2)c1` [2-8] was run?
Answer: Its pIC50 is 7.80.
